Assay results published in PubChem BioAssay AID540256 (National Center for Advancing Translational Sciences (NCATS), 2011).
Screen size: about 300,000 compounds; about 3,700 (1.2%) were called active. This list was built around the results that the source calls inconclusive (neither active nor inactive); the mix of calls is not that of the screen. Calls follow the shape of the full dose curve; tested in HEK293 cells. A potency beside an inconclusive call is a rough fit, not a confirmed value.
Potency is read from the fitted curve at half-maximal effect.

Test: qHTS for Inhibitors of binding or entry into cells for Lassa Virus; also: nearly all actives have a fitted effect of over 50% in size
Conditions: Lassa virus pseudotype entry inhibition, cell reporter; series mostly up to 37.9 µM
With `CCC(Sc1n[nH]c(=O)[nH]c1=O)C(=O)OCc1ccccc1` (stereo not given) the Potency was “inactive”.
In the case of `COc1ccc(C)cc1NC(=O)C/C(C)=N/NC(=O)Cc1cccc2ccccc12`, the Potency is reported as inconclusive: 0.562 µM [inhibitor, full curve, poor fit].
For `CCCn1cc(S(=O)(=O)c2ccccc2)c(=O)c2cc(F)c(N3CCCCCC3)cc21`, the Potency was inconclusive: 12.6 µM [inhibitor, partial curve, poor fit].
In the case of `CCCCN(C)C(=O)c1oc2ccc(S(=O)(=O)N3CCCCCC3)cc2c1C`, the Potency is reported as “inactive”.
In the case of `CCOC(=O)/C(C#N)=C/c1ccc(-c2ccccc2)o1`, the Potency is reported as “inactive”.
With `CC1(C)C[C@H]2C=C(C=O)[C@]3(C=O)C[C@]3(C)[C@H]2C1` the Potency was active: 3.66 µM.
For `Cc1ccc(-n2ncc3c(NC4CCCC4)ncnc32)cc1`, the Potency was inconclusive: 5.62 µM [inhibitor, single point].
For `Oc1ccc(N=C/C=C/c2cccc(Br)c2)cc1-c1nc2ccccc2s1`, the Potency was inconclusive: 5.17 µM [activator, single point].
With `COc1ccc(C)cc1NC(=O)CN1CCN(S(=O)(=O)c2ccc(C(C)C)cc2)CC1` the Potency was inconclusive: 35.5 µM [inhibitor, single point].
With `COc1ccc(-n2cc(CNC(C)c3ccncn3)c(-c3cccc(F)c3)n2)cc1` (stereo not given) the Potency was “inactive”.
With `Cc1ccc(NC(=O)CN2C(=O)CSc3ccc(S(=O)(=O)N(C)C)cc32)c(C)c1` the Potency was “inactive”.
In the case of `Cc1ccc2c(c1)C(c1ccccc1)N(C(=O)c1ccc(S(=O)(=O)N3CCCC3)cc1)CC(=O)N2` (stereo not given), the Potency is reported as “inactive”.
With `Cc1nn(-c2ccccc2)c(N2CCCC2)c1/C=N/NC(=S)Nc1ccccc1C(F)(F)F` the Potency was inconclusive: 7.94 µM [inhibitor, partial curve, poor fit].
In the case of `Nc1nc(NC(=O)c2cccnc2)nn1-c1ccccc1`, the Potency is reported as “inactive”.
For `N=C(N)c1ccc(OCCCCCOc2ccc(C(=N)N)cc2)cc1`, the Potency was inconclusive: 11.6 µM [inhibitor, partial curve].
In the case of `COc1ccc2sc(N(Cc3cccnc3)C(=O)c3cccs3)nc2c1`, the Potency is reported as inconclusive: 6.31 µM [inhibitor, single point].
In the case of `CCCCn1nnnc1SCC(=O)Nc1ccc(N(C)C)cc1`, the Potency is reported as inconclusive: 29.1 µM [activator, single point].
For `COc1ccc(C2OC(=O)CC2C(=O)NCc2ccccc2Cl)cc1OC` (stereo not given), the Potency was inconclusive: 0.355 µM [inhibitor, full curve, poor fit].
In the case of `O=[N+]([O-])c1ccc(CNc2cccc(Cl)c2)s1`, the Potency is reported as “inactive”.
For `O=C(c1cc2c(s1)CCCC2)N1CCN(S(=O)(=O)c2ccccc2C(F)(F)F)CC1`, the Potency was inconclusive: 1.41 µM [inhibitor, single point].
